Test results published in the supplement of paper PMC10849652.
The other results are listed elsewhere or left out.

Chains of the proteins cited; added tags and fusions are not shown. Lines headed by an entry give the natural chain unless they say otherwise; changes in a name come on top.
UniProt Q96CP2: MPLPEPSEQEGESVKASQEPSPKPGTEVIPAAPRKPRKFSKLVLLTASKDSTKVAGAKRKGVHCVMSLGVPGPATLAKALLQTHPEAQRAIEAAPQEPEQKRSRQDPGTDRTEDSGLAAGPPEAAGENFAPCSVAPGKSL
UniProt Q52LJ0: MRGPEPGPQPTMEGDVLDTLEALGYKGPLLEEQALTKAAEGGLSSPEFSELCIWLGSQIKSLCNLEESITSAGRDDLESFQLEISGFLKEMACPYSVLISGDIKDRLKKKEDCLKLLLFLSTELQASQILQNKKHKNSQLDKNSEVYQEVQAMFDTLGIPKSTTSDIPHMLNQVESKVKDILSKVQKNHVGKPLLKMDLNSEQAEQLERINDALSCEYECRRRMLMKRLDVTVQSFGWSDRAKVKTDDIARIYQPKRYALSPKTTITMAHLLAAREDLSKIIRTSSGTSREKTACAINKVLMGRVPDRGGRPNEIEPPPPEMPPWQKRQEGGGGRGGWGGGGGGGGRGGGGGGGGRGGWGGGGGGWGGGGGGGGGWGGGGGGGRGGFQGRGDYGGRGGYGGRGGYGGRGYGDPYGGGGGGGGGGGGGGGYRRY
UniProt Q9Y285: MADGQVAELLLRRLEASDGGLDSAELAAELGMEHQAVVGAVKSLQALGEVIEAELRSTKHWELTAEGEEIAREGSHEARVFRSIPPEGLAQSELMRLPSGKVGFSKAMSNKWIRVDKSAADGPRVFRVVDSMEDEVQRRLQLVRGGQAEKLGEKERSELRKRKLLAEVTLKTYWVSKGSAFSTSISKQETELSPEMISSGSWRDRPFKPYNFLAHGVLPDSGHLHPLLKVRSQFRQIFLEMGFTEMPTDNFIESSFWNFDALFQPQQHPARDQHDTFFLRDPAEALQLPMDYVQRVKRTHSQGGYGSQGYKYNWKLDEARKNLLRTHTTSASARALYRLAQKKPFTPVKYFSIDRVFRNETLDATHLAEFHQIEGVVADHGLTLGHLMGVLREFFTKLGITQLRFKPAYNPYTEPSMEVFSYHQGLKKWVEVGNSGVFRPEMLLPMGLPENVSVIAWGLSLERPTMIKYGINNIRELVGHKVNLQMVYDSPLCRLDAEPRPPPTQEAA
UniProt O95302: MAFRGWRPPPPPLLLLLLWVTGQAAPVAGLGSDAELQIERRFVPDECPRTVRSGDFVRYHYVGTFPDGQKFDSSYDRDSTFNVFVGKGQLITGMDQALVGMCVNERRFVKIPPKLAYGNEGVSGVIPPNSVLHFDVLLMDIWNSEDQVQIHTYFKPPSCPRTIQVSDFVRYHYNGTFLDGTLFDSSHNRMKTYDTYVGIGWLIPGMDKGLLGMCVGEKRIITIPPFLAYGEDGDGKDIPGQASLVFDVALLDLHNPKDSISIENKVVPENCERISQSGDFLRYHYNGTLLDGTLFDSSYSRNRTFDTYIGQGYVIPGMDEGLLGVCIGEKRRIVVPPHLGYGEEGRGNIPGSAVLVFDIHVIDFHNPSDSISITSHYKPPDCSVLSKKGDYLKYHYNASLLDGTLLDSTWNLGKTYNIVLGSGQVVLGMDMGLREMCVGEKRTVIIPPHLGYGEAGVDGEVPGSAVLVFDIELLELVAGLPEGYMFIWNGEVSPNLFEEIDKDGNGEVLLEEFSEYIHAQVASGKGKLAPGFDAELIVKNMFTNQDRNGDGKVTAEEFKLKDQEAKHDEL
UniProt Q8NFF5: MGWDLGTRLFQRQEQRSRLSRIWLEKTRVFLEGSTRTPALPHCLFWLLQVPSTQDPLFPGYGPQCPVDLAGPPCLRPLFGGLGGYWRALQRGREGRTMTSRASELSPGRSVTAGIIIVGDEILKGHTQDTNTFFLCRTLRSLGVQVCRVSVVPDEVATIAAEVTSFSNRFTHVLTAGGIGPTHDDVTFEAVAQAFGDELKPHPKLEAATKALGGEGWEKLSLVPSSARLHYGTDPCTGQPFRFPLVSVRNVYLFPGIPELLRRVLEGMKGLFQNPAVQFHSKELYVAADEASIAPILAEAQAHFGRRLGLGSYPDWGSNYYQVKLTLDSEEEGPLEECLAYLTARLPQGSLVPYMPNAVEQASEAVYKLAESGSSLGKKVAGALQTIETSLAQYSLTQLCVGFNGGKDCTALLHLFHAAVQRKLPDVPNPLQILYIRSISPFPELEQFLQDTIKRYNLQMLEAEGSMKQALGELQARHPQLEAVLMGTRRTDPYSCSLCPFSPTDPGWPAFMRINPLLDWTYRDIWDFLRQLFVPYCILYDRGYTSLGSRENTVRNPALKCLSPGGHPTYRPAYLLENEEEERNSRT
UniProt Q14318: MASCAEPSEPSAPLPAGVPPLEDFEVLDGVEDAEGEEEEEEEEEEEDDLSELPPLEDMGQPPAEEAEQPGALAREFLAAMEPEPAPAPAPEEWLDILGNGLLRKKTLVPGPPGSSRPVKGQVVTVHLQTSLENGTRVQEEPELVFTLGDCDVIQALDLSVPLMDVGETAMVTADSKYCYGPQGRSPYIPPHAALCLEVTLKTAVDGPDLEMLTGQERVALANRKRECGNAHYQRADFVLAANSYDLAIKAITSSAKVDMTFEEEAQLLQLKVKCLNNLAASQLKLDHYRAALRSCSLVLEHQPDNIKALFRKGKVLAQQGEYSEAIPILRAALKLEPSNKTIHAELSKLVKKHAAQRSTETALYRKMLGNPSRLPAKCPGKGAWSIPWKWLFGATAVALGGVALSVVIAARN
UniProt Q9UBU6: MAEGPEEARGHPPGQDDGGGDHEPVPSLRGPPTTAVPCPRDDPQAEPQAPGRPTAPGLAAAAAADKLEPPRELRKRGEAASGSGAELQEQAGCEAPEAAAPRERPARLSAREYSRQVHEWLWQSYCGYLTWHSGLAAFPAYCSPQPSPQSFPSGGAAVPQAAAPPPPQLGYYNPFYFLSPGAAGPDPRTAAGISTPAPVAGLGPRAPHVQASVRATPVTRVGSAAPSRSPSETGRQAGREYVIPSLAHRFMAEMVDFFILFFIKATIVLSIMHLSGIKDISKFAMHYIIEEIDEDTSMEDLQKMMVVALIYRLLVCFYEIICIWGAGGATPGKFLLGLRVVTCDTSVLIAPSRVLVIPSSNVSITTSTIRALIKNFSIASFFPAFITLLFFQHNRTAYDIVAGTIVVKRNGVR
UniProt Q96ME1: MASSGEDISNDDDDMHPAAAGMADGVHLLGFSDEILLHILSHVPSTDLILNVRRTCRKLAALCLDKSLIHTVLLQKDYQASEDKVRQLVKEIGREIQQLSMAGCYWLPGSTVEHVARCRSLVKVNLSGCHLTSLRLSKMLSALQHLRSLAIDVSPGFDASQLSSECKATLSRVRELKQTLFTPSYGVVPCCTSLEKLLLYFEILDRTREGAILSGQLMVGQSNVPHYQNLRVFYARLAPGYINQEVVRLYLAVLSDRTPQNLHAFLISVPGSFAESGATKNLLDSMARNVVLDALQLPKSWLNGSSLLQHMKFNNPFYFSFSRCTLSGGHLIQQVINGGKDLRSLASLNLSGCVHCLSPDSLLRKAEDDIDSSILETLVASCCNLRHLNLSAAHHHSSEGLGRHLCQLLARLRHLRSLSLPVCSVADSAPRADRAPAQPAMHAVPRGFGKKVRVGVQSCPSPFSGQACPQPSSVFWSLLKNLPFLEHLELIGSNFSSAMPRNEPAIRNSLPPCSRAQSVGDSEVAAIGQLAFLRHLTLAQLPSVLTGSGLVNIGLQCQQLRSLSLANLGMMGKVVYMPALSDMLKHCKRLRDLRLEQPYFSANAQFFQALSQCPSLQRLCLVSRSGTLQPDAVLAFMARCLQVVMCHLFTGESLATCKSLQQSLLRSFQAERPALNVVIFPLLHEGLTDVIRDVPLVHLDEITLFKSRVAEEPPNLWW
UniProt P26885: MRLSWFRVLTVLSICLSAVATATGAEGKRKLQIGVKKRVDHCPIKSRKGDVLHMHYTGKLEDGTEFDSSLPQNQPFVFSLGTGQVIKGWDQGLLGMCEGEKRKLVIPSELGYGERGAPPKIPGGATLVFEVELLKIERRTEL
UniProt P10109: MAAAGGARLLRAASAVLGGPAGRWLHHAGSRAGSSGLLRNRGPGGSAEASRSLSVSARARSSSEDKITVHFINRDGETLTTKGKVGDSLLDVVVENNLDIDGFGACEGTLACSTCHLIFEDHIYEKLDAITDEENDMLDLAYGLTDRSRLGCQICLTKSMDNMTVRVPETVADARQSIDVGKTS
UniProt O95684: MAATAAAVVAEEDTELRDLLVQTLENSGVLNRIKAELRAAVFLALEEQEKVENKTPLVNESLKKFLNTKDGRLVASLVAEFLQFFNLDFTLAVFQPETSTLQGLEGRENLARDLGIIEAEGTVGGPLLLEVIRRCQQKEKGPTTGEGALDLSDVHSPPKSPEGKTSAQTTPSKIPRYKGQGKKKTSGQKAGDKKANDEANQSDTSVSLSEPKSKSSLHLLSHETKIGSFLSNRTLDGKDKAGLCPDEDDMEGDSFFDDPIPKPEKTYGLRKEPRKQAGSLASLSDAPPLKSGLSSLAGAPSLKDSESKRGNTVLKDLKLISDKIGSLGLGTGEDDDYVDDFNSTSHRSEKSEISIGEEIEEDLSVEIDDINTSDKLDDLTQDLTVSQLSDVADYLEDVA
UniProt Q92520: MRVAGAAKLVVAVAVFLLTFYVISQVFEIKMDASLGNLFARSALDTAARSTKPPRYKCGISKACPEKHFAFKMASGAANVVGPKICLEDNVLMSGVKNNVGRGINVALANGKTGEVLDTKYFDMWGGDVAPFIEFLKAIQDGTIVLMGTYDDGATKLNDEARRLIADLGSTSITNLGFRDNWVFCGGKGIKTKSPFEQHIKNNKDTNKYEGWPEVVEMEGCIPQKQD
UniProt Q8N3X1: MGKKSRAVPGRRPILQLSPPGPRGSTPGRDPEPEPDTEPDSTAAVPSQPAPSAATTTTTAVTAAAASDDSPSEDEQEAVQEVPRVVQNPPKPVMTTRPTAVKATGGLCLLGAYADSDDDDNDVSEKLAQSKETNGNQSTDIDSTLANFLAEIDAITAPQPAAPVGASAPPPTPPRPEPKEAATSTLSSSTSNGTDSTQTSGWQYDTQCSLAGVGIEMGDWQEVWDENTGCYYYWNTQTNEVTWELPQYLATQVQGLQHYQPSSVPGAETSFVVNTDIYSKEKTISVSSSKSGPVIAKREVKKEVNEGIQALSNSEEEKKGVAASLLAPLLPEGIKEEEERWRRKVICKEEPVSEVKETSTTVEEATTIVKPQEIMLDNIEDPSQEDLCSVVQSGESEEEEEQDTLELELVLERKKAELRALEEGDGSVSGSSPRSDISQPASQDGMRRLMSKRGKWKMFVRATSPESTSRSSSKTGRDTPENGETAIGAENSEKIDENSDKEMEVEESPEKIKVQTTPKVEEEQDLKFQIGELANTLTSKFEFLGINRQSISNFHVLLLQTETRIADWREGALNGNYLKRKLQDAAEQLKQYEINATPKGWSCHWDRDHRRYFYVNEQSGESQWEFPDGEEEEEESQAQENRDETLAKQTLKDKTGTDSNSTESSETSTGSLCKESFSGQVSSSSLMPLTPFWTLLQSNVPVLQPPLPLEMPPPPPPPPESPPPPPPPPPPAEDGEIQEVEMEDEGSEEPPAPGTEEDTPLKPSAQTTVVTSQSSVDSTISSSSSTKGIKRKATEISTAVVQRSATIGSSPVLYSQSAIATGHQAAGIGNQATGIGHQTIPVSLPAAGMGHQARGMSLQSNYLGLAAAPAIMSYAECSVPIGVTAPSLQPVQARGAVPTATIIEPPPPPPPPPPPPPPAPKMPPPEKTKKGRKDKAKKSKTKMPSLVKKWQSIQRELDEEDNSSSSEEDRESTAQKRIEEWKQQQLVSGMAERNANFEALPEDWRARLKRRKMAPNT
UniProt Q96IG2: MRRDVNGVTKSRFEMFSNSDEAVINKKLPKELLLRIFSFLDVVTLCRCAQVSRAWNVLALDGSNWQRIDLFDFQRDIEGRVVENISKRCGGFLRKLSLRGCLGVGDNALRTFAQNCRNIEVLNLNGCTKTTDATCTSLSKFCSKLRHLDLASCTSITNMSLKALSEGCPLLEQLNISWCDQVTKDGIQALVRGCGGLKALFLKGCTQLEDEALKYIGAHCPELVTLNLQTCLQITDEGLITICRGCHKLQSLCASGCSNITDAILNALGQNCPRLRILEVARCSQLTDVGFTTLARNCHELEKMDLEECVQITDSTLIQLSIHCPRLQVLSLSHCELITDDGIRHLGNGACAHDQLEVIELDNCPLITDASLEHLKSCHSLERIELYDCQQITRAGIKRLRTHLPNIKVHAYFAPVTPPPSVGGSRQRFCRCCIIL
UniProt Q92913: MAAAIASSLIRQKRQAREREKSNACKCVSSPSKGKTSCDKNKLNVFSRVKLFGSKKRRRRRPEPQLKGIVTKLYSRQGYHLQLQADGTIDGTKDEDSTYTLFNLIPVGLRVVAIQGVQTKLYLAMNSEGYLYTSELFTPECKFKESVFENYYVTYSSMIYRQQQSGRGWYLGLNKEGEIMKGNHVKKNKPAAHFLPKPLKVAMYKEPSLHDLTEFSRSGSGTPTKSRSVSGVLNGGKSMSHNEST

How the values were obtained:
Assay in all cases: log2 fold change, soluble protein after heating vs DMSO (PISA); higher = thermal stabilisation; K562 cells, 10 uM, 30 min; active = over 0.2 and 3.5 SD of the protein, either way, in both replicates (recomputed)
[1] = compound: COC1=CC=C(C=C1)CN2C=CC3=C2C=C(C=C3)C(=O)NO
How it was run: (§1)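 For each measurement, 10 μM compound was applied for 30 min to K562 cells at 2×10^6 cells/mL. Aliquots were heated for 3 min across 48°C-58°C, pooled, and extracted in PBS with 0.5% NP-40 at 4°C; the supernatant after 21,000xg for 90 min was soluble protein. This was quantified by TMTpro 16plex LC-MS/MS with channel sums equalised, and thermal stability was reported relative to control samples from duplicates, on a log2 fold-change scale.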

filanesib = compound: CON(C)C(=O)N1N=C(c2cc(F)ccc2F)S[C@@]1(CCCN)c1ccccc1 [filanesib]
How it was run: as §1

zotarolimus = compound: CO[C@H]1C[C@@H]2CC[C@@H](C)[C@@](O)(O2)C(=O)C(=O)N2CCCC[C@H]2C(=O)O[C@H]([C@H](C)C[C@@H]2CC[C@H](n3cnnn3)[C@H](OC)C2)CC(=O)[C@H](C)/C=C(\C)[C@@H](O)[C@@H](OC)C(=O)[C@H](C)C[C@H](C)/C=C/C=C/C=C/1C [zotarolimus]
How it was run: as §1

idasanutlin = compound: COc1cc(C(=O)O)ccc1NC(=O)[C@@H]1N[C@@H](CC(C)(C)C)[C@](C#N)(c2ccc(Cl)cc2F)[C@H]1c1cccc(Cl)c1F [idasanutlin]
How it was run: as §1

alisertib = compound: COc1cc(Nc2ncc3c(n2)-c2ccc(Cl)cc2C(c2c(F)cccc2OC)=NC3)ccc1C(=O)O [alisertib]
How it was run: as §1

[2] = compound: COc1cc2nc(-c3cc(F)ccc3O)nc(N[C@@H]3CNC[C@H]3C(C)(C)O)c2cc1OC
How it was run: as §1

gefitinib = compound: COc1cc2ncnc(Nc3ccc(F)c(Cl)c3)c2cc1OCCCN1CCOCC1 [gefitinib]
How it was run: as §1

[3] = compound: COc1cccc2cc(-c3nc([C@H]4CC[C@H](C(=O)O)CC4)n4ncnc(N)c34)[nH]c12
How it was run: as §1

lapatinib = compound: CS(=O)(=O)CCNCc1ccc(-c2ccc3ncnc(Nc4ccc(OCc5cccc(F)c5)c(Cl)c4)c3c2)o1 [lapatinib]
How it was run: as §1

pictilisib = compound: CS(=O)(=O)N1CCN(Cc2cc3nc(-c4cccc5[nH]ncc45)nc(N4CCOCC4)c3s2)CC1 [pictilisib]
How it was run: as §1

[4] = compound: CS(=O)(=O)c1ccc(-c2cnc(N)c(C(=O)Nc3ccccc3)n2)cc1
How it was run: as §1

crizotinib = compound: C[C@@H](Oc1cc(-c2cnn(C3CCNCC3)c2)cnc1N)c1c(Cl)ccc(F)c1Cl [crizotinib]
How it was run: as §1

[5] = compound: C[C@@H]1COCCN1C2=NC(=NC(=C2)C3(CC3)S(=O)(=O)C)C4=C5C=CNC5=CC=C4
How it was run: as §1

[6] = compound: C[C@H](C1=CC=C(C=C1)C(=O)NC2=C3C=CNC3=NC=C2)N
How it was run: as §1

duvelisib = compound: C[C@H](Nc1ncnc2nc[nH]c12)c1cc2cccc(Cl)c2c(=O)n1-c1ccccc1 [duvelisib]
How it was run: as §1

gandotinib = compound: Cc1cc(Nc2cc(CN3CCOCC3)c3nc(C)c(Cc4ccc(Cl)cc4F)n3n2)n[nH]1 [gandotinib]
How it was run: as §1

tozasertib = compound: Cc1cc(Nc2cc(N3CCN(C)CC3)nc(Sc3ccc(NC(=O)C4CC4)cc3)n2)n[nH]1 [tozasertib]
How it was run: as §1

[7] = compound: Cc1cc(SCc2sc(-c3ccc(C(F)(F)F)cc3)nc2C)ccc1OCC(=O)O
How it was run: as §1

doramapimod = compound: Cc1ccc(-n2nc(C(C)(C)C)cc2NC(=O)Nc2ccc(OCCN3CCOCC3)c3ccccc23)cc1 [doramapimod]
How it was run: as §1

ispinesib = compound: Cc1ccc(C(=O)N(CCCN)[C@@H](c2nc3cc(Cl)ccc3c(=O)n2Cc2ccccc2)C(C)C)cc1 [ispinesib]
How it was run: as §1

Measured: log2 fold change

FLYWCH2 (UniProt Q96CP2)
inactive: [1] -0.066 | filanesib 0.063 | zotarolimus 0.007 | idasanutlin -0.03 | alisertib -0.053 | [2] -0.118 | gefitinib -0.002 | [3] 0.057 | lapatinib 0 | pictilisib -0.13 | [4] -0.019 | crizotinib -0.002 | [5] 0.047 | [6] -0.095 | duvelisib 0.03 | gandotinib -0.133 | tozasertib 0.031 | [7] 0.009 | doramapimod -0.001 | ispinesib -0.021

FAM98B (UniProt Q52LJ0)
inactive: [1] -0.013 | filanesib 0.256 | zotarolimus 0.128 | idasanutlin -0.037 | alisertib 0.071 | [2] 0.006 | gefitinib -0.02 | [3] -0.174 | lapatinib -0.029 | pictilisib -0.052 | [4] -0.039 | crizotinib -0.051 | [5] -0.008 | [6] 0.04 | duvelisib 0.029 | gandotinib 0.01 | tozasertib -0.073 | [7] 0.085 | doramapimod 0.024 | ispinesib 0.037

FARSA (UniProt Q9Y285)
inactive: [1] -0.007 | filanesib 0.001 | zotarolimus 0.001 | idasanutlin -0.072 | alisertib -0.079 | [2] 0.052 | gefitinib 0.009 | [3] 0.006 | lapatinib 0 | pictilisib 0.043 | [4] 0 | crizotinib 0.018 | [5] 0.09 | [6] 0.014 | duvelisib -0.007 | gandotinib -0.014 | tozasertib -0.016 | [7] 0.057 | doramapimod -0.01 | ispinesib -0.036

FKBP9 (UniProt O95302)
inactive: [1] 0.035 | filanesib 0.045 | zotarolimus 0.046 | idasanutlin -0.013 | alisertib -0.029 | [2] 0.042 | gefitinib 0.019 | [3] -0.021 | lapatinib -0.006 | pictilisib 0.026 | [4] -0.005 | crizotinib 0.058 | [5] -0.031 | [6] 0.106 | duvelisib -0.005 | gandotinib 0.096 | tozasertib 0.022 | [7] 0.039 | doramapimod 0.02 | ispinesib -0.015

Taken from above (3 entries):
FLYWCH2 (UniProt Q96CP2)
inactive: [1] -0.066 | filanesib 0.063 | zotarolimus 0.007 | idasanutlin -0.03 | alisertib -0.053 | [2] -0.118 | gefitinib -0.002 | [3] 0.057 | lapatinib 0 | pictilisib -0.13 | [4] -0.019 | crizotinib -0.002 | [5] 0.047 | [6] -0.095 | duvelisib 0.03 | gandotinib -0.133 | tozasertib 0.031 | [7] 0.009 | doramapimod -0.001 | ispinesib -0.021

FAM98B (UniProt Q52LJ0)
inactive: [1] -0.013 | filanesib 0.256 | zotarolimus 0.128 | idasanutlin -0.037 | alisertib 0.071 | [2] 0.006 | gefitinib -0.02 | [3] -0.174 | lapatinib -0.029 | pictilisib -0.052 | [4] -0.039 | crizotinib -0.051 | [5] -0.008 | [6] 0.04 | duvelisib 0.029 | gandotinib 0.01 | tozasertib -0.073 | [7] 0.085 | doramapimod 0.024 | ispinesib 0.037

FARSA (UniProt Q9Y285)
inactive: [1] -0.007 | filanesib 0.001 | zotarolimus 0.001 | idasanutlin -0.072 | alisertib -0.079 | [2] 0.052 | gefitinib 0.009 | [3] 0.006 | lapatinib 0 | pictilisib 0.043 | [4] 0 | crizotinib 0.018 | [5] 0.09 | [6] 0.014 | duvelisib -0.007 | gandotinib -0.014 | tozasertib -0.016 | [7] 0.057 | doramapimod -0.01 | ispinesib -0.036

(listing goes on)

FLAD1 (UniProt Q8NFF5)
inactive: [1] -0.03 | filanesib 0.057 | zotarolimus 0.023 | idasanutlin -0.063 | alisertib -0.013 | [2] 0.157 | gefitinib -0.009 | [3] 0.069 | lapatinib -0.046 | pictilisib 0.168 | [4] 0.177 | crizotinib 0.091 | [5] 0.043 | [6] -0.039 | duvelisib 0.136 | gandotinib 0.171 | tozasertib -0.002 | [7] 0.035 | doramapimod -0.043 | ispinesib -0.024

FKBP8 isoform 2 (UniProt Q14318)
inactive: [1] 0.054 | filanesib 0.146 | zotarolimus 0.109 | idasanutlin 0.186 | alisertib -0.075 | [2] -0.02 | gefitinib -0.018 | [3] -0.231 | lapatinib 0.171 | pictilisib -0.167 | [4] 0.042 | crizotinib -0.095 | [5] -0.174 | [6] 0.212 | duvelisib -0.086 | gandotinib 0.078 | tozasertib -0.036 | [7] 0.153 | doramapimod 0.177 | ispinesib -0.318

FAM8A1 (UniProt Q9UBU6)
inactive: [1] 0.173 | filanesib -0.025 | zotarolimus 0.035 | idasanutlin -0.077 | alisertib -0.086 | [2] 0.023 | gefitinib -0.044 | [3] 0.03 | lapatinib 0.006 | pictilisib -0.027 | [4] 0.034 | crizotinib -0.028 | [5] 0.042 | [6] -0.002 | duvelisib -0.025 | gandotinib 0.049 | tozasertib -0.085 | [7] 0.086 | doramapimod -0.009 | ispinesib -0.047

FBXL18 isoform 4 (UniProt Q96ME1)
inactive: [1] 0.101 | filanesib -0.064 | zotarolimus -0.031 | idasanutlin -0.108 | alisertib 0.024 | [2] 0.014 | gefitinib -0.025 | [3] 0.026 | lapatinib 0.018 | pictilisib 0.074 | [4] 0.003 | crizotinib -0.056 | [5] 0.178 | [6] -0.148 | duvelisib 0.032 | gandotinib -0.052 | tozasertib -0.005 | [7] 0.02 | doramapimod -0.006 | ispinesib 0.021

FKBP2 (UniProt P26885)
inactive: [1] -0.006 | filanesib -0.027 | zotarolimus 0.234 | idasanutlin 0.025 | alisertib 0.004 | [2] 0.029 | gefitinib 0.001 | [3] -0.014 | lapatinib -0.051 | pictilisib 0.062 | [4] 0.032 | crizotinib 0.113 | [5] 0.057 | [6] -0.011 | duvelisib 0.058 | gandotinib 0.018 | tozasertib 0.063 | [7] 0.042 | doramapimod -0.032 | ispinesib 0.036

FDX1 (UniProt P10109)
inactive: [1] -0.08 | filanesib -0.132 | zotarolimus 0.021 | idasanutlin 0.006 | alisertib 0.027 | [2] 0.065 | gefitinib -0.01 | [3] -0.054 | lapatinib -0.022 | pictilisib 0.029 | [4] -0.059 | crizotinib 0.108 | [5] -0.012 | [6] -0.049 | duvelisib 0.049 | gandotinib 0.093 | tozasertib 0.011 | [7] 0.039 | doramapimod 0.001 | ispinesib 0.15

FAU (UniProt P62861)
inactive: [1] -0.142 | filanesib 0.4 | zotarolimus -0.044 | idasanutlin 0.11 | alisertib -0.18 | [2] -0.065 | gefitinib 0.029 | [3] -0.218 | lapatinib 0.123 | pictilisib -0.188 | [4] -0.086 | crizotinib -0.016 | [5] -0.595 | [6] 0.381 | duvelisib -0.164 | gandotinib 0.202 | tozasertib 0.017 | [7] 0.057 | doramapimod 0.187 | ispinesib -0.312

FGFR1OP (UniProt O95684)
inactive: [1] 0.057 | filanesib -0.032 | zotarolimus -0.03 | idasanutlin -0.034 | alisertib -0.039 | [2] -0.03 | gefitinib 0.012 | [3] -0.031 | lapatinib 0.02 | pictilisib -0.001 | [4] -0.014 | crizotinib -0.034 | [5] -0.008 | [6] -0.02 | duvelisib -0.006 | gandotinib -0.115 | tozasertib -0.005 | [7] 0 | doramapimod -0.056 | ispinesib -0.084

FAM3C (UniProt Q92520)
inactive: [1] 0.008 | filanesib -0.057 | zotarolimus 0.018 | idasanutlin 0.006 | alisertib -0.01 | [2] -0.062 | gefitinib 0.096 | [3] 0.036 | lapatinib -0.017 | pictilisib 0.001 | [4] 0.011 | crizotinib -0.016 | [5] 0.145 | [6] -0.039 | duvelisib 0.016 | gandotinib 0.004 | tozasertib -0.021 | [7] -0.089 | doramapimod -0.023 | ispinesib 0.016

FNBP4 isoform 2 (UniProt Q8N3X1)
inactive: [1] -0.026 | filanesib -0.01 | zotarolimus -0.032 | idasanutlin 0 | alisertib -0.097 | [2] -0.029 | gefitinib 0.015 | [3] 0.022 | lapatinib 0.02 | pictilisib -0.015 | [4] -0.01 | crizotinib 0.073 | [5] -0.005 | [6] -0.054 | duvelisib -0.007 | gandotinib -0.014 | tozasertib 0.002 | [7] -0.045 | doramapimod -0.011 | ispinesib 0.014

FBXL20 (UniProt Q96IG2)
inactive: [1] 0.225 | filanesib -0.017 | zotarolimus 0.095 | idasanutlin -0.085 | alisertib -0.017 | [2] 0.087 | gefitinib 0.097 | [3] -0.047 | lapatinib 0.015 | pictilisib -0.037 | [4] -0.002 | crizotinib 0.075 | [5] 0.088 | [6] -0.147 | duvelisib 0.052 | gandotinib -0.05 | tozasertib -0.06 | [7] -0.052 | doramapimod 0.09 | ispinesib -0.016

FGF13 isoform 3 (UniProt Q92913)
inactive: [1] -0.041 | filanesib -0.011 | zotarolimus 0.046 | idasanutlin 0.006 | alisertib 0.203 | [2] 0.014 | gefitinib 0.003 | [3] 0.064 | lapatinib 0.066 | pictilisib -0.056 | [4] 0.049 | crizotinib -0.005 | [5] 0.059 | [6] 0.026 | duvelisib 0.123 | gandotinib -0.045 | tozasertib -0.033 | [7] 0.125 | doramapimod -0.011 | ispinesib 0.09
